Data on one molecule can be found in patent publication US9045493B2, “Furo[3,2-b]- and thieno[3,2-b]pyridin derivatives” (Merck Patent GmbH, priority 2012, dated 2015).

Sequences of proteins named here, by UniProt entry; tags and fusion partners are left off.
UniProt Q9UHD2, whole entry: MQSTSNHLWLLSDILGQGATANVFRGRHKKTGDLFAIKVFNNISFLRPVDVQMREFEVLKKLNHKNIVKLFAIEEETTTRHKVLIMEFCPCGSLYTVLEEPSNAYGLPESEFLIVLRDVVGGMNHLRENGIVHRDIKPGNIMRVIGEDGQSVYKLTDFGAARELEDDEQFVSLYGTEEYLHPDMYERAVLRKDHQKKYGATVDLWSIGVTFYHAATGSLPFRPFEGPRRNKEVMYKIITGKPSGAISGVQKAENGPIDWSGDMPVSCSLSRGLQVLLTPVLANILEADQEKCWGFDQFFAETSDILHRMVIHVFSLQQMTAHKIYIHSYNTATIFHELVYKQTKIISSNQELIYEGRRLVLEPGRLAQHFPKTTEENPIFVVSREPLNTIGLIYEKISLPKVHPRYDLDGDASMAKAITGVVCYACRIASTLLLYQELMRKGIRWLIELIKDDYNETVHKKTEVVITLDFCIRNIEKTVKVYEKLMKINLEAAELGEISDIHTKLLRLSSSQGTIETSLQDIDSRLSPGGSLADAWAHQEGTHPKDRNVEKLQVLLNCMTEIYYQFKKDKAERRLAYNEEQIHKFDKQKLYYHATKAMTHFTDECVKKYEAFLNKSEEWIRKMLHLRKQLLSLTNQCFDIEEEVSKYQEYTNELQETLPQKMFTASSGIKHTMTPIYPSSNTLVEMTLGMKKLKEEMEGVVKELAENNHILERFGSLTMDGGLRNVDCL
UniProt Q14164, whole entry: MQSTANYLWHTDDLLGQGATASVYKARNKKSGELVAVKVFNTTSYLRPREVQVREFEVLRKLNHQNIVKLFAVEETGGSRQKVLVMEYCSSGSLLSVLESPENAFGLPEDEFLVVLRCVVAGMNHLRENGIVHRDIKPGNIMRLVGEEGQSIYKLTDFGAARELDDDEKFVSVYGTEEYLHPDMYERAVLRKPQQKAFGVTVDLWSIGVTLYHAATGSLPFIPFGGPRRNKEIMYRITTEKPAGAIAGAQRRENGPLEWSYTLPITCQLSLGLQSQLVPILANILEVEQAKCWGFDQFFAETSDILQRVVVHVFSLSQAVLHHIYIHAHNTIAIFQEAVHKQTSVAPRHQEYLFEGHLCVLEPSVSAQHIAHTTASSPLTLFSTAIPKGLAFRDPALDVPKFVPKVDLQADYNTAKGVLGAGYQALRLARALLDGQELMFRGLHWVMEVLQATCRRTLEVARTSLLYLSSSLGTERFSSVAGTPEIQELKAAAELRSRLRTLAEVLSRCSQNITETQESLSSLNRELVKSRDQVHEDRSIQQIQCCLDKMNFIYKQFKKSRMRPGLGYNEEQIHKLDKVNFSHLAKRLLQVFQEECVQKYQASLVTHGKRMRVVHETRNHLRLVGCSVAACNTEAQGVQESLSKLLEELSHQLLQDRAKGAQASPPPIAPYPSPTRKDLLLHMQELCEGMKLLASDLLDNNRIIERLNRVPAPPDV

Assay [1] deals with TANK binding kinase (TBK1) (Homo sapiens, UniProt Q9UHD2). The experiment in a line: TBK1 enzyme assay (384-well Flashplate kinase assay). Format: biochemical. The following applies: read-out: TBK1 enzyme assay IC50; 10 μM ATP, 120 Min at 30° C. As to the method: The kinase assay is performed as 384-well Flashplate assay (for e.g. Topcount measurement.
0.6 nM TANK binding kinase (TBK1), 800 nM biotinylated MELK-derived peptide (Biotin-Ah-Ah-[…]) and 10 μM ATP (spiked with 0.25 μCi ^33P-ATP/well) are incubated in a total volume of 50 μl (10 mM MOPS, 10 mM Mg-acetat, 0.1 mM EGTA, 1 mM DTT, 0.02% Brij35, 0.1% BSA, pH 7.5) with or without test compound for 120 Min at 30° C. The reaction is stopped with 25 μl 200 mM EDTA. After 30 Min at room temperature the liquid is removed and each well washed thrice with 100 μl 0.9% sodium chloride solution. Nonspecific reaction is determined in presence of 100 nM Staurosporine. Radioactivity is measured in a Topcount (PerkinElmer). Results (e.g. IC50-values) are calculated with program tools provided by the IT-department (e.g. AssayExplorer, Symyx).

Assay [2] has as its target IKKε (Homo sapiens, UniProt Q14164). The experiment in a line: IKKε kinase assay (384-well Flashplate). As to conditions: read-out: IKKε enzyme assay IC50; 10 μM ATP, 2 hours at 30° C.

Structures are written as SMILES. Structures were worked out from names or drawings and are uncertain.

As a reminder, the IC50 is the concentration at which inhibition is half-maximal. Regarding `COc1cc(-c2cc3nccc(-c4ccc(OC5CCOCC5)c(C#N)c4)c3o2)ccc1C(=O)N1CCCNC(=O)C1`, the IC50 in assay [1] and in assay [2] was below 300 nM each time.
